{"source": "patent US20240191253A1", "about": "“STABLE PRODUCTION SYSTEMS FOR LENTIVIRAL VECTOR PRODUCTION” (priority 2021, published 2024)", "system": "HEK293FT cells", "experiment": "Lentiviral titer after transient transfection of dox-inducible or constitutive promoter combinations", "type": "cell-based", "settings": "doxycycline and TetOn added to the transfection mix", "note": "For at least one compound, name, drawing or mass did not settle the structure."}
{"smiles": "C[C@H]1c2cccc(O)c2C(=O)C2=C(O)[C@]3(O)C(=O)C(C(N)=O)=C(O)[C@@H](N(C)C)[C@@H]3[C@@H](O)[C@@H]21", "note": "[doxycycline]", "values": [{"measurement": "effect on lentiviral titers of addition to the transfection mix", "result": "minimal reduction in lentiviral titers"}]}
